We go through two molecules from PubChem BioAssay AID292 (DTP/NCI, 2004).

This test deals with B6C3F1 mice, ip Sarcoma M5076, median survival T/C. Kind of test: NCI In Vivo Anticancer Drug Screen. Data for tumor model Sarcoma M5076 (intraperitoneal) in B6C3F1 mice. The settings on record: T/C endpoint: median survival time, schedule: Q04DX004 (ip), higher T/C = longer survival. As for the experimental part:
The antitumor activity of compounds was measured in mice bearing transplantable tumors. Survival or tumor size were measured and the results are expressed as the measurement made in the treated group (T) divided by the measurement made in the vehicle treated control group (C). The tumor model used in this assay is Sarcoma M5076 (intraperitoneal) in B6C3F1 mice

The list shows only some results of the screen, not a fair sample: it gathers some chemical classes. Not every dose and run of a compound is shown. T/C is the treated group as % of the vehicle group. For survival time, the PubChem record calls one and a half times the control and up active, and a quarter to a half above the control has no call in these data; cut-offs in other NCI protocols can differ. Schedules are NCI's codes, read here as Q, the interval in days (D) or hours (H), X, the number of doses. Some T/C values are marked as having no survivor count here; that says nothing about deaths at the dose. Signs of the kind (2×) say how often a value occurs here. Some doses were run more than once; the values are given in rising order.

For `CC(O)C1/C=C/C=C/C(=O)OC2CC3OC4C5OC5(C)C(O)CC4(COC(=O)C(O)C(C)CCO1)C2(C)C31CO1` (stereo not drawn), the T/C runs as follows: (dose: 5.0 mg/kg/injection, vehicle: saline + alcohol) 140 % of control [survivor count not shown]; (dose: 10.0 mg/kg/injection, vehicle: saline + alcohol) 117 % of control [survivor count not shown]; (dose: 20.0 mg/kg/injection, vehicle: saline + alcohol) 135 % of control [survivor count not shown].

Consider `CC1=C[C@H]2O[C@@H]3C[C@H]4OC(=O)/C=C\C=C\[C@H]([C@@H](C)O)OC[C@H](O)[C@@]5(C)O[C@@H]5C(=O)OC[C@@]2(C[C@H]1O)[C@]4(C)C31CO1` (stereo partly drawn), for which the T/C reads like this: (dose: 0.32 mg/kg/injection, vehicle: Klucel (hydroxypropylcellulose) (HPC)) 106 % of control [survivor count not shown]; (dose: 0.63 mg/kg/injection, vehicle: Klucel (hydroxypropylcellulose) (HPC)) 108 % of control [survivor count not shown]; (dose: 1.25 mg/kg/injection, vehicle: Klucel (hydroxypropylcellulose) (HPC)) 133 % of control [survivor count not shown] (2×); (dose: 2.5 mg/kg/injection, vehicle: Klucel (hydroxypropylcellulose) (HPC)) 133 [survivor count not shown] and 142 % of control [survivor count not shown]; (dose: 5.0 mg/kg/injection, vehicle: Klucel (hydroxypropylcellulose) (HPC)) 145 % of control [survivor count not shown].
